Data reported in article PMC5550851.
Read-outs that look alike come from different tables or passages of the source. No constants are given. Whether binding was seen depends on the method and setting. Binding seen in cells or lysates may run through a third protein. Some binding calls cover weakened binding; strength is not graded here. For some of these results: Where a sequence is shown, tags or fusion partners need not be part of it.

The chains behind the UniProt entries cited, without tags or fusion partners. Residues count along the entry.
UniProt Q63604, residues 32-821: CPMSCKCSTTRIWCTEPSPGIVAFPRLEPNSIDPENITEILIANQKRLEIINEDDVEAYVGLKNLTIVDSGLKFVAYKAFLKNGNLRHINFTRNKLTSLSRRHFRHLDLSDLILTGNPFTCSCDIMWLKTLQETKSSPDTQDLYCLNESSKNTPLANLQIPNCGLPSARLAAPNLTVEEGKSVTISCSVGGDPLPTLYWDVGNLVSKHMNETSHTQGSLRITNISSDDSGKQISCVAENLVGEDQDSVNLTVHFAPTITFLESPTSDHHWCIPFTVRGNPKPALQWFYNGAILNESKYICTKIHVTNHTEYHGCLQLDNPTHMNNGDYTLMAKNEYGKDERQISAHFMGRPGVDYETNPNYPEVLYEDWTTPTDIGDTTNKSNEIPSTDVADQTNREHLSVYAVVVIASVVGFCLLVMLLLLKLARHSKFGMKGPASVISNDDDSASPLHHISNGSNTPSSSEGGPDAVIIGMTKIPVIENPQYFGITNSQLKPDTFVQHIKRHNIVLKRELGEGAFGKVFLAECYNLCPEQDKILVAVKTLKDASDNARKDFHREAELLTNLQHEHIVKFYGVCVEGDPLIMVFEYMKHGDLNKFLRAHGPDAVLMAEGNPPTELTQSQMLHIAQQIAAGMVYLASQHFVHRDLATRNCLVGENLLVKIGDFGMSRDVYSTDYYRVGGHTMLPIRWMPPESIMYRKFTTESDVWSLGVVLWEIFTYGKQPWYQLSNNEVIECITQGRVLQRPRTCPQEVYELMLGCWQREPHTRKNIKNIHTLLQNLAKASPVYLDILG
UniProt Q07866: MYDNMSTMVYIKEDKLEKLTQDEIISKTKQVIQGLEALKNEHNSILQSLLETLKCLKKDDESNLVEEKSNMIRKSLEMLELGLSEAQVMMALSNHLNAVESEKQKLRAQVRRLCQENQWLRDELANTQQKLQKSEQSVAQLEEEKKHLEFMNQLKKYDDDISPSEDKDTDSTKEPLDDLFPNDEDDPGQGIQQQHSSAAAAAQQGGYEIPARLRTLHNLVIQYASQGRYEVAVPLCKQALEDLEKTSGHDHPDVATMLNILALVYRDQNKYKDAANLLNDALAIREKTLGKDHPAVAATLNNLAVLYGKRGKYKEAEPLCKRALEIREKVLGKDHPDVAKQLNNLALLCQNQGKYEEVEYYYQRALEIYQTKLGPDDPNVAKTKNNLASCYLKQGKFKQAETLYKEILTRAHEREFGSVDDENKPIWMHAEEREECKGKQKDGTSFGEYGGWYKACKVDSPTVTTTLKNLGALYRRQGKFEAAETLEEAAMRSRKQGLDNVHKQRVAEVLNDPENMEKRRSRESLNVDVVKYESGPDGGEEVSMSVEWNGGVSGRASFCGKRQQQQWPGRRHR

How the values were obtained:
Flag-rTrkB-FL (rat) [1] = target: Flag-rTrkB-FL (rat) (UniProt Q63604); assay: co-IP; HEK293 cells co-transfected; lysed 48 h later in TNE buffer (10 mM Tris, 150 mM NaCl, 1 mM EDTA, 1% NP-40, 10% glycerol); precipitated with anti-FLAG M2-Sepharose overnight at 4 °C; immunoblot; with or without rising amounts of CC1-EGFP
Flag-rTrkB-FL (rat) [2] = target: Flag-rTrkB-FL (rat) (UniProt Q63604); assay: as above; remark: listed apart in the source
[3] = target: endogenous TrkB (rat (endogenous in Wistar rat hippocampal neurons and BLA tissue)) (UniProt Q63604); assay: co-IP; endogenous proteins; DIV6 rat hippocampal neurons infected with EGFP or CC1-EGFP lentivirus, lysed in TNE buffer 48 h later; mouse anti-JIP3 antibody and protein G-Sepharose; immunoblot for TrkB, JIP3 and GFP

Molecule | binding (Flag-rTrkB-FL (rat) [2]) | other results
Myc-hKLC1 (from UniProt Q07866 1-573) |  | binding (Flag-rTrkB-FL (rat) [1]): binds
Myc-mJIP3 (protein, UniProt Q9ESN9 1-1337) MMEIQMDEGGGVVVYQDDYCSGSVMSERVSGLAGSIYREFERLIHCYDEEVVKELMPLVVNVLENLDSVLSENQEHEVELELLREDNEQLLTQYEREKALRKQAEEKFIEFEDALEQEKKELQIQVEHYEFQTRQLELKAKNYADQISRLEERESEMKKEYNALHQRHTEMIQTYVEHIERSKMQQVGGSGQTESSLPGRSRKERPTSLNVFPLADGMVRAQMGGKLVPAGDHWHLSDLGQLQSSSSYQCPNDEMSESGQSSAAATPSTTGTKSNTPTSSVPSAAVTPLNESLQPLGDYVSVTKNNKQAREKRNSRNMEVQVTQEMRNVSIGMGSSDEWSDVQDIIDSTPELDVCPETRLERTGSSPTQGIVNKAFGINTDSLYHELSTAGSEVIGDVDEGADLLGEFSVRDDFFGMGKEVGNLLLENSQLLETKNALNVVKNDLIAKVDQLSGEQEVLKGELEAAKQAKVKLENRIKELEEELKRVKSEAVTARREPREEVEDVSSYLCTELDKIPMAQRRRFTRVEMARVLMERNQYKERLMELQEAVRWTEMIRASREHPSVQEKKKSTIWQFFSRLFSSSSSPPPAKRSYPSVNIHYKSPTAAGFSQRRSHALCQISAGSRPLEFFPDDDCTSSARREQKREQYRQVREHVRNDDGRLQACGWSLPAKYKQLSPNGGQEDTRMKNVPVPVYCRPLVEKDPSTKLWCAAGVNLSGWKPHEEDSSNGPKPVPGRDPLTCDREGEGEPKSTHPSPEKKKAKETPEADATSSRVWILTSTLTTSKVVIIDANQPGTIVDQFTVCNAHVLCISSIPAASDSDYPPGEMFLDSDVNPEDSGADGVLAGITLVGCATRCNVPRSNCSSRGDTPVLDKGQGDVATTANGKVNPSQSTEEATEATEVPDPGPSESEATTVRPGPLTEHVFTDPAPTPSSSTQPASENGSESNGTIVQPQVEPSGELSTTTSSAAPTMWLGAQNGWLYVHSAVANWKKCLHSIKLKDSVLSLVHVKGRVLVALADGTLAIFHRGEDGQWDLSNYHLMDLGHPHHSIRCMAVVNDRVWCGYKNKVHVIQPKTMQIEKSFDAHPRRESQVRQLAWIGDGVWVSIRLDSTLRLYHAHTHQHLQDVDIEPYVSKMLGTGKLGFSFVRITALLIAGNRLWVGTGNGVVISIPLTETVVLHRGQLLGLRANKTSPTSGEGTRPGGIIHVYGDDSSDKAASSFIPYCSMAQAQLCFHGHRDAVKFFVSVPGNVLATLNGSVLDSPSEGPGPAAPAADAEGQKLKNALVLSGGEGYIDFRIGDGEDDETEECAGDVNQTKPSLSKAERSHIIVWQVSYTPE | binds | 
CC1-EGFP (coiled-coil domain 1 of JIP3 fused with EGFP), in HEK293 cells (domain or fragment) QLSGEQEVLKGELEAAKQAKVKLENRIKELEEELKRVKSEAVTARREPREEVEDVSSYLCTELDKIPMAQ | binds | 
CC1-EGFP expressed from virus in rat neurons (domain or fragment) QLSGEQEVLKGELEAAKQAKVKLENRIKELEEELKRVKSEAVTARREPREEVEDVSSYLCTELDKIPMAQ |  | binding [3]: binds
